Data as given in PubChem BioAssay AID902 (National Center for Advancing Translational Sciences (NCATS), 2007).
Among all 130,000 compounds or so, about 1,900 (1.5%) were called active. These results got no clear call from the source, so the numbers are uncertain. Calls follow the shape of the dose curve; as a rule, active = well fitted cell-killing curve with a large enough effect; inconclusive = small, poorly fitted or top-dose-only effect; inactive = no such curve, though single readings can be large or run the other way.

assay: qHTS Screen for Compounds that Selectively Target Cancer Cells with p53 Mutations: Cytotoxicity of p53ts Cells at the Nonpermissive Temperature; settings: H1299-p53A138V viability at 39C, ATP luminescence, 24 h; also: nearly all actives have a fitted effect of over 55% in size
Potency is read from the fitted curve at half-maximal effect.

Compound | Potency
Cc1cc(C)cc(OP(C)(=O)Nc2ccc(SC(F)(F)F)cc2)c1 (stereo unspecified) | inconclusive: 11.2 µM
